Test in all cases: cleaved PARP positive nuclei fraction relative to DMSO control; melanoma cells; higher = more apoptosis
Settings in all cases: library dose: low library concentration; 72 h

The subject of test [1] is MZ2-MEL.
Test [2] deals with MeWo.
Test [3] deals with RPMI7951.
The subject of test [4] is RVH-421.
The subject of test [5] is SkMel28.
The test system of test [6] is SkMel2.
Test [7] deals with SkMel30.
For test [8], the system named is UACC62.
Test [9] relates to WM115.
For test [10], the system named is WM1716.
The test system of test [11] is WM1745.
The test system of test [12] is WM3526.
Test [13] relates to WM3619.
The test system of test [14] is WM451Lu.

Some of the results follow. Single values are uncertain, as repeats are few or missing.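 Cells were imaged in 1,536-well plates, and nuclei stained with an antibody against cleaved PARP were counted against all DNA-stained nuclei to give the apoptosis fraction. Screening doses were chosen to leave most cells alive, and resting and induced cleaved-PARP levels differ strongly between cell lines.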

For `N#CC[C@H](C1CCCC1)n1cc(-c2ncnc3[nH]ccc23)cn1` [ruxolitinib] + Cc1ccc(Nc2nccc(N(C)c3ccc4c(C)n(C)nc4c3)n2)cc1S(N)(=O)=O [Pazopanib] (first compound 1 µM, partner dose 0.4 µM), the “cleaved PARP positive nuclei fraction” value in [1] stood at 94.9%; in test [2] it was 138%; in [3] it was 66.7%; in test [4] it was 161%; in test [5] it was 42.6%; in test [6], 293%. In addition, the “cleaved PARP positive nuclei fraction” value turned out to be 94.9% in test [7]; 172% in test [8]; 95.9% in [9]; 78.3% in test [10]; 126% in test [11]; 158% in test [12]. For the same molecule, the figures for the “cleaved PARP positive nuclei fraction” value in test [13] and in [14] were 77.6% and 47%, respectively.

Regarding `CC[C@]1(O)C[C@H]2CN(CCc3c([nH]c4ccccc34)[C@@](C(=O)OC)(c3cc4c(cc3OC)N(C=O)[C@H]3[C@@](O)(C(=O)OC)[C@H](OC(C)=O)[C@]5(CC)C=CCN6CC[C@]43[C@@H]65)C2)C1` [vincristine] + O=C(O)c1ccc2c(c1)nc(Nc1cccc(Cl)c1)c1ccncc12 [CX4945] (first compound 0.0001 µM, partner dose 0.4 µM), the “cleaved PARP positive nuclei fraction” value was determined as 41.6% in test [1]; 117% in test [2]; 120% in test [3]; 79.9% in test [4]; 86.5% in test [5]; 146% in [6]. The “cleaved PARP positive nuclei fraction” value in test [7] is 261%; in test [8] it was 453%; in test [9] it was 947%; in test [10] it was 333%; in test [11], 85%; in test [12] it was 96.3%. Besides, the “cleaved PARP positive nuclei fraction” value in test [13] came to 231%; in test [14] it was 67.2%.

On to `O=C(/C=C/c1cccnc1)NCCCCC1CCN(C(=O)c2ccccc2)CC1` + CS(=O)(=O)c1ccc(C(=O)Nc2ccc(Cl)c(-c3ccccn3)c2)c(Cl)c1 [vismodegib] (first compound 0.01 µM, partner dose 1 µM), for which the “cleaved PARP positive nuclei fraction” value in test [1] turned out to be 482%; in test [2] it was 117%; in [3], 86.3%; in [4], 367%; in test [5], 83%; in test [6], 2110%. In addition, the “cleaved PARP positive nuclei fraction” value stood at 95.4% in test [7]; 99.3% in test [8]; 97.4% in test [9]; 97.7% in test [10]; 94.8% in [11]; 81.3% in [12]. The figures for the “cleaved PARP positive nuclei fraction” value in test [13] and in test [14] were 118% and 48.8%, respectively.

For `CC[C@]1(O)C[C@H]2CN(CCc3c([nH]c4ccccc34)[C@@](C(=O)OC)(c3cc4c(cc3OC)N(C=O)[C@H]3[C@@](O)(C(=O)OC)[C@H](OC(C)=O)[C@]5(CC)C=CCN6CC[C@]43[C@@H]65)C2)C1` [vincristine] + CC(C)C[C@H](NC(=O)[C@H](Cc1ccccc1)NC(=O)c1cnccn1)B(O)O [Bortezomib] (first compound 0.0001 µM, partner dose 0.001 µM), the “cleaved PARP positive nuclei fraction” value was determined as 190% in test [1]; 94.2% in [2]; 598% in [3]; 319% in [4]; 96.8% in test [5]; 90.6% in test [6]. Moreover, the “cleaved PARP positive nuclei fraction” value in test [7] stood at 224%; in [8] it was 338%; in [9] it was 747%; in test [10], 235%; in test [11], 145%; in test [12] it was 301%. Besides, the “cleaved PARP positive nuclei fraction” value in [13] was determined as 319%; in test [14] it was 90.4%.

Consider `COc1cc([C@@H]2c3cc4c(cc3[C@@H](O[C@@H]3O[C@@H]5CO[C@@H](C)O[C@H]5[C@H](O)[C@H]3O)[C@H]3COC(=O)[C@H]23)OCO4)cc(OC)c1O` [etoposide] + Cn1sc(=O)n(Cc2ccccc2)c1=O [TDZD-8] (first compound 0.02 µM, partner dose 0.4 µM), for which the “cleaved PARP positive nuclei fraction” value in test [1] worked out at 56%; in test [2] it was 164%; in test [3] it was 64.9%; in test [4] it was 110%; in [5], 24.9%; in test [6] it was 193%. For the same molecule, the “cleaved PARP positive nuclei fraction” value in test [7] turned out to be 176%; in [8], 49.5%; in [9], 91.3%; in test [10] it was 79.9%; in test [11] it was 95%; in test [12], 59.5%. Besides, the “cleaved PARP positive nuclei fraction” value in test [13] is 101%; in test [14], 134%.

With `CC[C@]1(O)C[C@H]2CN(CCc3c([nH]c4ccccc34)[C@@](C(=O)OC)(c3cc4c(cc3OC)N(C=O)[C@H]3[C@@](O)(C(=O)OC)[C@H](OC(C)=O)[C@]5(CC)C=CCN6CC[C@]43[C@@H]65)C2)C1` [vincristine] + C[C@]1(c2nc3c(C(N)=O)cccc3[nH]2)CCCN1 [Veliparib] (first compound 0.0001 µM, partner dose 1.4 µM), the “cleaved PARP positive nuclei fraction” value in [1] was determined as 268%; in [2] it was 243%; in test [3] it was 459%; in test [4] it was 119%; in test [5], 69.9%; in [6], 114%. The “cleaved PARP positive nuclei fraction” value in test [7] was determined as 383%; in test [8] it was 363%; in [9] it was 1670%; in test [10], 175%; in test [11], 106%; in test [12], 127%. For the same molecule, the “cleaved PARP positive nuclei fraction” value in [13] was determined as 178%; in [14], 246%.

In the case of `O=C(/C=C/c1cccnc1)NCCCCC1CCN(C(=O)c2ccccc2)CC1` + C=CCNC1=C2C[C@@H](C)C[C@H](OC)[C@H](O)[C@@H](C)/C=C(\C)[C@H](OC(N)=O)[C@@H](OC)/C=C\C=C(/C)C(=O)NC(=CC1=O)C2=O [Tanespimycin] (first compound 0.01 µM, partner dose 0.002 µM), the “cleaved PARP positive nuclei fraction” value in test [1] is 270%; in test [2], 100%; in test [3], 33.6%; in [4], 103%; in test [5], 37.7%; in [6], 1480%. Besides, the “cleaved PARP positive nuclei fraction” value in test [7] was found to be 73.2%; in [8] it was 116%; in test [9], 167%; in [10], 71.9%; in test [11], 103%; in [12], 86.4%. The “cleaved PARP positive nuclei fraction” value in test [13] was found to be 110%; in test [14], 37%.

Consider `Cc1cc(Nc2cc(N3CCN(C)CC3)nc(Sc3ccc(NC(=O)C4CC4)cc3)n2)n[nH]1` [Tozasertib] + CCN(CC)CCNC(=O)c1c(C)[nH]c(/C=C2\C(=O)Nc3ccc(F)cc32)c1C [sunitinib] (first compound 0.006 µM, partner dose 0.4 µM), for which the “cleaved PARP positive nuclei fraction” value in test [1] was found to be 98.8%; in test [2], 165%; in test [3] it was 93%; in test [4], 101%; in test [5] it was 77.6%; in test [6], 18.2%. In addition, the “cleaved PARP positive nuclei fraction” value in [7] came out at 292%; in [8], 165%; in [9], 94.7%; in test [10] it was 43.8%; in [11], 127%; in test [12], 42.2%. Further, the “cleaved PARP positive nuclei fraction” value in test [13] was determined as 79.4%; in [14] it was 90.6%.

Regarding `Cc1cn(-c2cc(NC(=O)c3ccc(C)c(Nc4nccc(-c5cccnc5)n4)c3)cc(C(F)(F)F)c2)cn1` [nilotinib] + O=C(O)[C@@H]1[O][Sb](=[O])([O][Sb]2(=[O])[O][C@H]([C@H](O)CO)[C@H](O)[C@H](C(=O)O)[O]2)[O][C@H]([C@H](O)CO)[C@@H]1O [stibogluconate] (first compound 0.2 µM, partner dose 2 µM), the “cleaved PARP positive nuclei fraction” value was 130% in [1]; 134% in [2]; 58.2% in [3]; 53.8% in test [4]; 74.7% in test [5]; 145% in test [6]. Moreover, the “cleaved PARP positive nuclei fraction” value in test [7] was 127%; in test [8] it was 109%; in test [9], 117%; in [10], 35.7%; in [11], 106%; in [12], 72.5%. Further, the “cleaved PARP positive nuclei fraction” value in test [13] came out at 93.6%; in test [14] it was 41.4%.

The values above are taken from the supplement of paper PMC4604168 (melanoma cell lines).
